# According to the supplement of paper PMC11348887:
# Structures can show the parent of a compound that is named as a salt. The list shows a part of the results. Small differences around the control level are noise.
# What was measured:
# Conditions in all cases: 5 µM; treatment: days 7-14 after plating, readout day 21
# [1] = test system: hPSC-derived cortical neurons (WA09); experiment: nucleus area z-score vs screen plate; higher = larger nuclei (more mature)
# [2] = test system: hPSC-derived cortical neurons (WA09); experiment: total neurite length per nucleus (MAP2) z-score; higher = more neurite growth
# [3] = test system: hPSC-derived cortical neurons (WA09); experiment: nucleus roundness z-score vs screen plate; higher = rounder nuclei (more mature)
# [4] = test system: hPSC-derived cortical neurons (WA09); experiment: KCl-induced FOS+/EGR-1+ double-positive nuclei fraction z-score (KCl minus unstimulated); higher = stronger activity-induced IEG response
Compound,nucleus area z-score [1],total neurite length per nucleus (z-score) [2],nucleus roundness z-score [3],KCl-induced FOS+/EGR-1+ double-positive nuclei fraction z-score [4]
Cc1cc(C)c(S(=O)(=O)n2cc(C)cc2C)c(C)c1,-0.607,0.535,0.352,1.08
O=C(O)c1cc(-c2ccccc2)nc2ccccc12 [Cinchophen],1.01,1.45,1.02,-0.23
CN(Cc1ccc(C(C)(C)C)cc1)Cc1cccc2ccccc12 [Butenafine HCl],-0.0939,0.489,1.02,-0.676
Cc1[nH]c(=O)c(C#N)cc1-c1ccncc1 [Milrinone],1.23,0.973,0.0694,1.54
